No constants are given. Whether binding was seen depends on the method and setting. Binding seen in cells or lysates may run through a third protein. Some entries that bind do so weakly or less than the wild type.
T1: THOC5 (human (endogenous in iPSCs)) (UniProt Q13769)
T1 sequence: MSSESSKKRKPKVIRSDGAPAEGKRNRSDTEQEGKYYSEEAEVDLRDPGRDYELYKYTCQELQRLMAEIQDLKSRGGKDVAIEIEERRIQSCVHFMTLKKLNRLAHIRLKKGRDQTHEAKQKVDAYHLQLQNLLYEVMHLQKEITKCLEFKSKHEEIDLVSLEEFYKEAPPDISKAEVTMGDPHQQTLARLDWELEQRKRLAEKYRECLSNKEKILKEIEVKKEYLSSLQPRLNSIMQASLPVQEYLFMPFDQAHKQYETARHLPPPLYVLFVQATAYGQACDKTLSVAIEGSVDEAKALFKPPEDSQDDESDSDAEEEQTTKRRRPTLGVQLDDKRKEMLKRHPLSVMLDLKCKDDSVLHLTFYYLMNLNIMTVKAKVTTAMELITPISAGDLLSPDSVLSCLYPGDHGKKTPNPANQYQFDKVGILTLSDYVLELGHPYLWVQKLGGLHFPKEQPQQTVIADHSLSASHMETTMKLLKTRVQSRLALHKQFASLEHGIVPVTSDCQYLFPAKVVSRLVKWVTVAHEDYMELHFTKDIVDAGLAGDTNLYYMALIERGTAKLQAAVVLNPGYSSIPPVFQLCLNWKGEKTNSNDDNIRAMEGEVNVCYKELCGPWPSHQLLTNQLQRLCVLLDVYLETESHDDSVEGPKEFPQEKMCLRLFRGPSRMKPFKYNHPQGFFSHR


How the values were obtained:
[1] = target: T1, THOC5 (human (endogenous in iPSCs)); test: co-IP; anti-THOC5 on Dynabeads Protein G, incubated with iPSC lysate (35 ug of protein) overnight at 4 °C; blots of the precipitate; unaffected control, THOC6^E188K/+ and THOC6^E188K/E188K iPSCs
[2] = target: T1, THOC5 (human (endogenous in iPSCs)); test: co-IP; as a1, lysate of affected THOC6^E188K/E188K iPSCs only (anti-THOC5 on Dynabeads Protein G, overnight at 4 °C)

binding [1] | binding [2] | Binder
binds |  | THOC6 (protein, UniProt Q86W42-1 1-341) MERAVPLAVPLGQTEVFQALQRLHMTIFSQSVSPCGKFLAAGNNYGQIAIFSLSSALSSEAKEESKKPVVTFQAHDGPVYSMVSTDRHLLSAGDGEVKAWLWAEMLKKGCKELWRRQPPYRTSLEVPEINALLLVPKENSLILAGGDCQLHTMDLETGTFTRVLRGHTDYIHCLALRERSPEVLSGGEDGAVRLWDLRTAKEVQTIEVYKHEECSRPHNGRWIGCLATDSDWMVCGGGPALTLWHLRSSTPTTIFPIRAPQKHVTFYQDLILSAGQGRCVNQWQLSGELKAQVPGSSPGLLSLSLNQQPAAPECKVLTAAGNSCRVDVFTNLGYRAFSLSF
 | no binding | THOC6 p.E188K (protein, UniProt Q86W42-1 1-341) MERAVPLAVPLGQTEVFQALQRLHMTIFSQSVSPCGKFLAAGNNYGQIAIFSLSSALSSEAKEESKKPVVTFQAHDGPVYSMVSTDRHLLSAGDGEVKAWLWAEMLKKGCKELWRRQPPYRTSLEVPEINALLLVPKENSLILAGGDCQLHTMDLETGTFTRVLRGHTDYIHCLALRERSPEVLSGGKDGAVRLWDLRTAKEVQTIEVYKHEECSRPHNGRWIGCLATDSDWMVCGGGPALTLWHLRSSTPTTIFPIRAPQKHVTFYQDLILSAGQGRCVNQWQLSGELKAQVPGSSPGLLSLSLNQQPAAPECKVLTAAGNSCRVDVFTNLGYRAFSLSF
binds |  | THOC1 (protein, UniProt Q96FV9 1-657) MSPTPPLFSLPEARTRFTKSTREALNNKNIKPLLSTFSQVPGSENEKKCTLDQAFRGILEEEIINHSSCENVLAIISLAIGGVTEGICTASTPFVLLGDVLDCLPLDQCDTIFTFVEKNVATWKSNTFYSAGKNYLLRMCNDLLRRLSKSQNTVFCGRIQLFLARLFPLSEKSGLNLQSQFNLENVTVFNTNEQESTLGQKHTEDREEGMDVEEGEMGDEEAPTTCSIPIDYNLYRKFWSLQDYFRNPVQCYEKISWKTFLKYSEEVLAVFKSYKLDDTQASRKKMEELKTGGEHVYFAKFLTSEKLMDLQLSDSNFRRHILLQYLILFQYLKGQVKFKSSNYVLTDEQSLWIEDTTKSVYQLLSENPPDGERFSKMVEHILNTEENWNSWKNEGCPSFVKERTSDTKPTRIIRKRTAPEDFLGKGPTKKILMGNEELTRLWNLCPDNMEACKSETREHMPTLEEFFEEAIEQADPENMVENEYKAVNNSNYGWRALRLLARRSPHFFQPTNQQFKSLPEYLENMVIKLAKELPPPSEEIKTGEDEDEEDNDALLKENESPDVRRDKPVTGEQIEVFANKLGEQWKILAPYLEMKDSEIRQIECDSEDMKMRAKQLLVAWQDQEGVHATPENLINALNKSGLSDLAESLTNDNETNS

Source: article PMC10884030
